Measured values as given in ChEMBL document CHEMBL1156240, “Papyriferic acid derivatives as reversal agents of multidrug resistance in cancer cells” (Bioorg Med Chem, 2010).
pIC50: −log10 of the molar value.

Test system: KB
Test: Cytotoxicity against human KB cells after 48 hrs by MTT assay
Assay type: functional, cell-based
Method in brief: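 Cells grown at 37 °C in 5% CO2; KB in DMEM with 10% FBS, KB-C2 kept with 10% FBS plus 2 µg/mL colchicine. Seeded 5 × 10³ cells/well, preincubated 24 h, then compounds at 2, 10, 50, 100 µg/mL in medium (0.5% DMSO final) for 48 h. MTT 0.5 mg/mL for 4 h, formazan dissolved in DMSO, OD 540 nm; IC50 relative to vehicle controls.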

In the case of COc1cc2c(c(OC)c1OC)-c1ccc(OC)c(=O)cc1[C@@H](NC(C)=O)CC2 [COLCHICINE], the pIC50 was 7.89.
